# Measurements reported in EP2327766B1, “Nitrilases” (BASF Enzymes LLC, priority 2001, dated 2003).
# For at least one compound, name, drawing or mass did not settle the structure.
# Test system: nitrilase SEQ ID NOS:103, 104
# Assay: Effect of starting material and product on nitrilase activity (phenylacetaldehyde cyanohydrin hydrolysis)
# Format: biochemical, Unknown (obtained from an environmental sample)
# Settings: up to levels of 30 mM
# Experimental: The effect of the process components on the activity of the enzymes was established by addition of the individual components to the enzymatic reaction. These components included the starting materials for the nitrile synthesis, aldehyde, cyanide and ammonium, as well as triethylamine, which is added in catalytic amounts to the nitrile synthesis reaction. The concentrations of the reactants were selected with possible process conditions in mind and were adapted to the levels of reactants used in the enzyme assays. In some cases, the solubility of the aldehydes and products was relatively low; in these cases, the highest level of solubility was added to the reactions as the highest level and 10% of this level as the lower value.
# The enzymatic reactions were carried out under standard conditions, with addition of one or more of the following components: benzaldehyde, phenylglycine, phenylacetaldehyde, phenyllactic acid, 2-chlorobenzaldehyde, 2-chloromandelic acid, 5-hydroxypentanal, (S)-2-amino-6-hydroxy hexanoic acid, 4-methylleucine, KCN, Triethylamine, NH4Cl. Control reactions were performed under standard conditions, with no additive. The samples were analyzed by non-chiral HPLC.
# SEQ ID NOS: 103, 104 was identified as a highly enantioselective nitrilase for the production of (S)- phenyllactic acid. […] The scaled-up enzymatic reaction with an enantiomeric excess (ee) of 95%. […]
smiles,measurement,value
O=C(O)C(O)Cc1ccccc1 (stereo not shown) [phenyllactic acid],effect on the enzyme activity,no effect
